Results are given in words; binding and its absence hold for the method and conditions named. Binding seen in cells or lysates may run through a third protein. Here binding means that the protein was enriched with, or labelled near, the bait; the list need not be complete.
T1: human Fructosamine-3-kinase (HsFN3K) (human (endogenous in HepG2)) (UniProt Q9H479)
T1 sequence: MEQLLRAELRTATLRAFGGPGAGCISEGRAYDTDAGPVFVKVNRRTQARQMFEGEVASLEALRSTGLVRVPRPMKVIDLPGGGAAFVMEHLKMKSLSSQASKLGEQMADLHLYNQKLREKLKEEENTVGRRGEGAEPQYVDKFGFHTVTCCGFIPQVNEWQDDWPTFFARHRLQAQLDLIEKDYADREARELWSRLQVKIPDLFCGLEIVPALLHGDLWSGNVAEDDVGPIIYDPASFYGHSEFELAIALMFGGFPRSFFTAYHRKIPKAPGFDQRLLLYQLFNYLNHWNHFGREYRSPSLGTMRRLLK

By UniProt entry, the sequences of proteins in these tests, tags left out. Residues count along the entry.
UniProt P07237, residues 18-508: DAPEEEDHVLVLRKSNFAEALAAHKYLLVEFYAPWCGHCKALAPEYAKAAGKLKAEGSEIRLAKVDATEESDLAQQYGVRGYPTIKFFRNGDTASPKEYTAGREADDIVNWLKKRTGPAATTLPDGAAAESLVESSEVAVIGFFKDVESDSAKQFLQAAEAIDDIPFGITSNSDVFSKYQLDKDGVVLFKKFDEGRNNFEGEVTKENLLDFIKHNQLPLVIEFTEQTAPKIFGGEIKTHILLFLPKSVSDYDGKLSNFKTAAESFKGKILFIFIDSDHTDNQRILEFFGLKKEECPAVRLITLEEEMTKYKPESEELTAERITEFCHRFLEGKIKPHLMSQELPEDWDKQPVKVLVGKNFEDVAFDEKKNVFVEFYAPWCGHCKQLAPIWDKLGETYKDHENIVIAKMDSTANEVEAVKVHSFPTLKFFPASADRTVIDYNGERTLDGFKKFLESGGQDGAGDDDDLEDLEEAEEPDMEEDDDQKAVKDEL
UniProt P30101, residues 25-505: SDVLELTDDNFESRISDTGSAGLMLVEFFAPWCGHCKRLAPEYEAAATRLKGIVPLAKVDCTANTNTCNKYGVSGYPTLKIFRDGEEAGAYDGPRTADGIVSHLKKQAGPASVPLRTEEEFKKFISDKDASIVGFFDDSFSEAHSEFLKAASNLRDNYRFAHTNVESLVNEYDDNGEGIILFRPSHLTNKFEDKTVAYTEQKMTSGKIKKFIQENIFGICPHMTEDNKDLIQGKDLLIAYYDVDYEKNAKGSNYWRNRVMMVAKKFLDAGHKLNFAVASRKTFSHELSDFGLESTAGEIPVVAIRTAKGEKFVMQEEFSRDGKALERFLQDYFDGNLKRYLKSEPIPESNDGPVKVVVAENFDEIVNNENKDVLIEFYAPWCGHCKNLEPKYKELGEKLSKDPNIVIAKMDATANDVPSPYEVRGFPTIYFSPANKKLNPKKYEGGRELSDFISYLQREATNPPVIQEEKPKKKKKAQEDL

B1: protein disulfide isomerase family A member 4 (PDIA4) (enzyme, UniProt P13667 21-645)
chain: VAGAEGPDEDSSNRENAIEDEEEEEEEDDDEEEDDLEVKEENGVLVLNDANFDNFVADKDTVLLEFYAPWCGHCKQFAPEYEKIANILKDKDPPIPVAKIDATSASVLASRFDVSGYPTIKILKKGQAVDYEGSRTQEEIVAKVREVSQPDWTPPPEVTLVLTKENFDEVVNDADIILVEFYAPWCGHCKKLAPEYEKAAKELSKRSPPIPLAKVDATAETDLAKRFDVSGYPTLKIFRKGRPYDYNGPREKYGIVDYMIEQSGPPSKEILTLKQVQEFLKDGDDVIIIGVFKGESDPAYQQYQDAANNLREDYKFHHTFSTEIAKFLKVSQGQLVVMQPEKFQSKYEPRSHMMDVQGSTQDSAIKDFVLKYALPLVGHRKVSNDAKRYTRRPLVVVYYSVDFSFDYRAATQFWRSKVLEVAKDFPEYTFAIADEEDYAGEVKDLGLSESGEDVNAAILDESGKKFAMEPEEFDSDTLREFVTAFKKGKLKPVIKSQPVPKNNKGPVKVVVGKTFDSIVMDPKKDVLIEFYAPWCGHCKQLEPVYNSLAKKYKGQKGLVIAKMDATANDVPSDRYKVEGFPTIYFAPSGDKKNPVKFEGGDRDLEHLSKFIEEHATKLSRTKEEL
B2: protein disulfide isomerase family A member 6 (PDIA6) (enzyme, UniProt Q15084 20-440)
chain: LYSSSDDVIELTPSNFNREVIQSDSLWLVEFYAPWCGHCQRLTPEWKKAATALKDVVKVGAVDADKHHSLGGQYGVQGFPTIKIFGSNKNRPEDYQGGRTGEAIVDAALSALRQLVKDRLGGRSGGYSSGKQGRSDSSSKKDVIELTDDSFDKNVLDSEDVWMVEFYAPWCGHCKNLEPEWAAAASEVKEQTKGKVKLAAVDATVNQVLASRYGIRGFPTIKIFQKGESPVDYDGGRTRSDIVSRALDLFSDNAPPPELLEIINEDIAKRTCEEHQLCVVAVLPHILDTGAAGRNSYLEVLLKLADKYKKKMWGWLWTEAGAQSELETALGIGGFGYPAMAAINARKMKFALLKGSFSEQGINEFLRELSFGRGSTAPVGGGAFPTIVEREPWDGRDGELPVEDDIDLSDVELDDLGKDEL

What follows are molecules tested against T1, human Fructosamine-3-kinase (HsFN3K) (human (endogenous in HepG2)) (assay: affinity purification with mass spectrometry; IP with rabbit polyclonal anti-FN3K antibody and protein A/G plus agarose beads from WT and FN3K KO HepG2 lysates (50 mM Tris-HCl pH 7.4, 150 mM NaCl, 1% Triton X-100, 1 mM EDTA, 10% glycerol), 4C, 18 h; LC-MS/MS; hits: only in WT or LFQ ratio WT/KO > 1.5).
In the case of “prolyl 4-hydroxylase subunit beta (P4HB) (from UniProt P07237 18-508) (enzyme)”, the binding is reported as “binds”. “protein disulfide isomerase family A member 3 (PDIA3) (from UniProt P30101 25-505) (enzyme)” was tested, and the binding was “binds”. In the case of B1, the binding is reported as “binds”. With B2 the binding was “binds”.

— article PMC10896376
